Data published in the supplement of paper PMC6143611.
Where a name gives a salt, the structure may show the parent alone. ± gives the uncertainty stated by the source. Some of the results follow. Plates or batches differ in their baseline, so values are only roughly comparable.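 A heat-shock-induced fluorescent stripe was set in larval rod outer segments at 6 dpf. Shedding distance ran from stripe to outer segment tip, measured by confocal stacks in about three fish per compound. Controls: 0.2% DMSO vehicle. Flagged compounds showed ≥20% change from same-week control, p < 0.001 (Dunnett test on mixed-effects models).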

Key:
[1] = test system: Danio rerio larva rod photoreceptor outer segment; assay: rod outer segment growth distance Dg, difference from same-week DMSO control mean; higher = more outer segment growth; settings: 20 µM; treatment time: 4 days (6-10 dpf)
[2] = test system: Danio rerio larva rod photoreceptor outer segment; assay: rod outer segment shedding distance Ds, difference from same-week DMSO control mean; higher = less outer segment shedding; settings: 20 µM; treatment time: 4 days (6-10 dpf)

Row | SMILES | rod outer segment growth distance Dg [1] [um] | rod outer segment shedding distance Ds [2] [um]
1 | NS(=O)(=O)c1cc(Cl)c(Cl)c(S(N)(=O)=O)c1 [Dichlorphenamide] | -2.18 ± 0.49 | -1.97 ± 0.42
2 | CCNC(=O)[C@H]1O[C@@H](n2cnc3c(N)nc(NCCc4ccc(CCC(=O)O)cc4)nc32)[C@H](O)[C@@H]1O | 0.58 ± 0.27 | 0.43 ± 0.35
3 | CC1=C(CC(=O)O)c2cc(F)ccc2/C1=C\c1ccc([S+](C)[O-])cc1 (stereo not given) [Sulindac] | -0.6 ± 0.22 | -1.28 ± 0.28
4 | Cc1cnc(C(=O)O)c[n+]1[O-] [Acipimox] | 0.54 ± 0.24 | -0.58 ± 0.15
5 | Cc1csc(-c2nnc(Nc3ccc(Oc4ncccc4-c4ccnc(N)n4)cc3)c3ccccc23)c1 | -1.36 ± 0.3 | -0.4 ± 0.21
6 | COc1ccccc1OCC(O)CN1CCN(CC(=O)Nc2c(C)cccc2C)CC1 (stereo not given) [Ranolazine 2HCl] | 0.74 ± 0.16 | -0.06 ± 0.19
7 | Nc1ccc(C(=O)NCC(=O)O)cc1 [4-Aminohippuric Acid] | 0.01 ± 0.18 | 0.01 ± 0.1
8 | CC(C)c1nc(CN(C)C(=O)N[C@@H](CCN2CCOCC2)C(=O)N[C@H](CC[C@H](Cc2ccccc2)NC(=O)OCc2cncs2)Cc2ccccc2)cs1 [Cobicistat (GS-9350)] | 0.26 ± 0.24 | -0.2 ± 0.13
9 | COc1ccc(C2CNC(=O)C2)cc1OC1CCCC1 (stereo not given) [Rolipram] | 0.03 ± 0.18 | -0.55 ± 0.18
10 | NC1=N[C@@]2(c3cc(NC(=O)c4ccc(F)cn4)ccc3F)COC[C@H]2CS1 | 0.36 ± 0.3 | -0.47 ± 0.32
11 | COc1ccccc1N1CCN(CCN2C(=O)CC3(CCCC3)CC2=O)CC1 | -1.58 ± 0.16 | 0 ± 0.13
12 | NC(=O)C1CCCc2c1[nH]c1ccc(Cl)cc21 (stereo not given) [EX 527 (Selisistat)] | -1.29 ± 0.13 | -0.64 ± 0.15
13 | CC(C)Cn1cnc2c(N)nc3ccccc3c21 [Imiquimod] | 0.68 ± 0.21 | -0.38 ± 0.22
14 | C[C@@H]1CN(CC(=O)Nc2ccc3c(c2)Cc2cccc(-c4cc(=O)cc(N5CCOCC5)o4)c2S3)C[C@H](C)O1 | -0.13 ± 0.18 | -0.9 ± 0.2
15 | CCN(CC)Cc1ccc2cc(COC(=O)Nc3ccc(C(=O)NO)cc3)ccc2c1 [Givinostat (ITF2357)] | -0.55 ± 0.32 | 0.64 ± 0.32
16 | COc1ccc(C2CC(=O)c3c(O)cc(OC4OC(COC5OC(C)C(O)C(O)C5O)C(O)C(O)C4O)cc3O2)cc1OC (stereo not given) [Methyl-Hesperidin] | -0.29 ± 0.26 | 0.55 ± 0.32
17 | O=c1c(O)c(-c2ccc(O)cc2)oc2cc(O)cc(O)c12 [Kaempferol] | 0.15 ± 0.3 | 0.09 ± 0.3
18 | C/C=C1\[C@H]2C=C(C)C[C@]1(N)c1ccc(=O)[nH]c1C2 [(-)-Huperzine A (HupA)] | 0.4 ± 0.32 | -0.02 ± 0.41
19 | O=C(O)COCCN1CCN(C(c2ccccc2)c2ccc(Cl)cc2)CC1 (stereo not given) [Cetirizine DiHCl] | -0.28 ± 0.16 | -0.42 ± 0.2
20 | Cc1ccc(NC(=O)c2ccc(CN3CCN(C)CC3)cc2)cc1Nc1nccc(-c2cccnc2)n1 [Imatinib Mesylate (STI571)] | -0.12 ± 0.18 | -0.84 ± 0.23
21 | CC[N+](CC)(CC)CCOc1cccc(OCC[N+](CC)(CC)CC)c1OCC[N+](CC)(CC)CC [Gallamine Triethiodide] | 0.12 ± 0.31 | 0.02 ± 0.31
22 | CC(C)C(=O)Oc1ccc(CO)cc1[C@H](CCN(C(C)C)C(C)C)c1ccccc1 [Fesoterodine Fumarate] | 0.33 ± 0.27 | 0 ± 0.28
23 | COc1cc(Nc2ncc(F)c(Nc3ccc4c(n3)NC(=O)C(C)(C)O4)n2)cc(OC)c1OC [R406 (free base)] | -0.42 ± 0.21 | 0.6 ± 0.17
24 | N=C(N)NC(=N)N1CCOCC1 [Moroxydine HCl] | 0.33 ± 0.22 | 0.53 ± 0.28

Full records, quoted from the list. Values in the order: rod outer segment growth distance Dg [1] [um]	rod outer segment shedding distance Ds [2] [um]
`NC1=N[C@@]2(c3cc(NC(=O)c4ccc(F)cn4)ccc3F)COC[C@H]2CS1` in the list: 0.36 ± 0.3	-0.47 ± 0.32
`NC(=O)C1CCCc2c1[nH]c1ccc(Cl)cc21` (stereo not given) [EX 527 (Selisistat)] in the list: -1.29 ± 0.13	-0.64 ± 0.15

Following part:

Row | SMILES | rod outer segment growth distance Dg [1] [um] | rod outer segment shedding distance Ds [2] [um]
25 | Cc1cc(-c2ccc(CC(=O)Nc3ccc(-c4cccnc4)cc3)cc2)ccn1 | -1.14 ± 0.22 | -0.15 ± 0.15
26 | C=CCn1c(=O)c2cnc(Nc3ccc(N4CCN(C)CC4)cc3)nc2n1-c1cccc(C(C)(C)O)n1 | -0.54 ± 0.2 | 1.16 ± 0.18
27 | COc1cccc2c1C(=O)c1c(O)c3c(c(O)c1C2=O)C[C@@](O)(C(=O)CO)C[C@@H]3O[C@H]1C[C@H](N)[C@H](O)[C@H](C)O1 [Doxorubicin (Adriamycin)] | -0.07 ± 0.18 | -2.32 ± 0.24
28 | CCc1cc(C(N)=S)ccn1 [Ethionamide] | -0.16 ± 0.25 | -0.2 ± 0.14
29 | Oc1ncnc2[nH]ncc12 [Allopurinol] | -0.44 ± 0.21 | 0.45 ± 0.17
30 | C[C@H](NCc1ccc(OCc2cccc(F)c2)cc1)C(N)=O [Safinamide Mesylate] | 0.32 ± 0.15 | -0.75 ± 0.15
31 | COC(=O)Nc1nc2cc([S+]([O-])c3ccccc3)ccc2[nH]1 (stereo not given) [Oxfendazole] | 0.17 ± 0.18 | -0.34 ± 0.28
32 | CN(C)CC(=O)Nc1ccc2[nH]c(=O)c3ccccc3c2c1 | -0.21 ± 0.19 | -0.04 ± 0.12
33 | COc1c2occc2cc2ccc(=O)oc12 [Methoxsalen] | -0.44 ± 0.19 | -1.59 ± 0.3
34 | O=C1CCC[C@@H]2[C@H]3CCC[N+]4([O-])CCC[C@@H](CN12)[C@@H]34 (stereo not given in full) [Oxymatrine] | -1.99 ± 1.4 | -4.27 ± 1.5
35 | Cc1nc2n(c(=O)c1CCN1CCC(c3noc4cc(F)ccc34)CC1)CCCC2 [Risperidone] | -0.66 ± 0.25 | -0.3 ± 0.17
36 | CCCc1nc(C(C)(C)O)c(C(=O)OCc2oc(=O)oc2C)n1Cc1ccc(-c2ccccc2-c2nnn[nH]2)cc1 [Olmesartan Medoxomil] | 0.58 ± 0.16 | 0.3 ± 0.13
37 | O=C(/C=C/c1ccc(O)c(O)c1)O[C@@H]1C[C@](O)(C(=O)O)C[C@@H](O)[C@H]1O [Chlorogenic Acid] | 0.34 ± 0.32 | 0.25 ± 0.33
38 | COc1cc2c(Nc3ccc(NC(=O)c4ccccc4)cc3)ncnc2cc1OCCCN1CCOCC1 | -1.03 ± 0.2 | -0.28 ± 0.21
39 | CCc1c2c(nc3ccc(OC(=O)N4CCC(N5CCCCC5)CC4)cc13)-c1cc3c(c(=O)n1C2)COC(=O)[C@]3(O)CC [Irinotecan] | 0.27 ± 0.2 | -1.38 ± 0.26
40 | NC[C@H](O)c1ccc(O)c(O)c1 [Noradrenaline bitartrate monohydrate] | -0.27 ± 0.18 | -0.14 ± 0.1
41 | Cc1cc(Nc2cc(CN3CCOCC3)c3nc(C)c(Cc4ccc(Cl)cc4F)n3n2)n[nH]1 | -0.47 ± 0.34 | -1.12 ± 0.25
42 | Oc1cc(O)c(Cl)cn1 [Gimeracil] | 0.19 ± 0.23 | -0.67 ± 0.24
43 | CCOC(=O)O[C@]1(C(=O)OCCl)CC[C@H]2[C@@H]3CCC4=CC(=O)C=C[C@]4(C)[C@H]3[C@@H](O)C[C@@]21C [Loteprednol etabonate] | -0.47 ± 0.22 | 0.14 ± 0.19
44 | CC[C@H]1OC(=O)[C@H](C)[C@@H](O[C@H]2C[C@@](C)(OC)[C@@H](O)[C@H](C)O2)[C@H](C)[C@@H](O[C@@H]2O[C@H](C)C[C@H](N(C)C)[C@H]2O)[C@](C)(OC)C[C@@H](C)C(=O)[C@H](C)[C@@H](O)[C@]1(C)O [Clarithromycin] | -0.94 ± 0.22 | 0.09 ± 0.13
45 | C[C@H]1C[C@H]2[C@@H]3CCC4=CC(=O)C=C[C@]4(C)[C@@]3(F)[C@@H](O)C[C@]2(C)[C@@]1(O)C(=O)CO [Betamethasone] | -1.4 ± 0.23 | 0.62 ± 0.18
46 | Nc1nc(N)nc(-c2cc(Cl)ccc2Cl)n1 [Irsogladine] | 0.9 ± 0.23 | -1.01 ± 0.29
47 | COc1c(N2CCNC(C)C2)c(F)cc2c(=O)c(C(=O)O)cn(C3CC3)c12 (stereo not given) [Gatifloxacin] | 0.58 ± 0.31 | 0.23 ± 0.21
48 | NCCc1ccc(O)c(O)c1 [Dopamine HCl] | 0.26 ± 0.2 | 0.09 ± 0.2

Row | SMILES | rod outer segment growth distance Dg [1] [um] | rod outer segment shedding distance Ds [2] [um]
49 | O=c1cc(N2CCOCC2)oc2c(-c3ccccc3)cccc12 | -1.85 ± 0.16 | -0.3 ± 0.21
50 | CCc1cc(Nc2nccc(-c3c(-c4ccc(OC)c(C(=O)Nc5c(F)cccc5F)c4)nc4ccccn34)n2)c(OC)cc1N1CCC(N2CCN(S(C)(=O)=O)CC2)CC1 | -1.34 ± 0.17 | -0.02 ± 0.22
51 | Cc1nc(C(=O)NCC(=O)O)c(O)c2ccc(Oc3ccccc3)cc12 | -0.03 ± 0.24 | -0.74 ± 0.27
52 | CCOC(=O)[C@H](CCc1ccccc1)N[C@H]1CCc2ccccc2N(CC(=O)O)C1=O [Benazepril HCl] | -0.35 ± 0.17 | -0.56 ± 0.19
53 | O=c1c(-c2ccc(O)cc2)coc2cc(O)cc(O)c12 [Genistein] | 0.5 ± 0.32 | 0.61 ± 0.23
54 | OC(Cn1cncn1)(Cn1cncn1)c1ccc(F)cc1F [Fluconazole] | 1.09 ± 0.19 | -0.34 ± 0.19
55 | COc1cc2nc(N3CCN(C(=O)C4CCCO4)CC3)nc(N)c2cc1OC (stereo not given) [Terazosin HCl] | 0.15 ± 0.21 | -0.63 ± 0.25
56 | CC(C)C[C@@H](C(=O)N[C@H](C(=O)OC1CCCC1)c1ccccc1)[C@H](O)C(=O)NO [Tosedostat (CHR2797)] | -1.13 ± 0.2 | 0.76 ± 0.16
57 | CN(C)/N=N/c1[nH]cnc1C(N)=O [Dacarbazine] | 0.04 ± 0.32 | -1.27 ± 0.34
58 | COC(=O)c1ccc2c(C(=Nc3ccc(N(C)C(=O)CN4CCN(C)CC4)cc3)c3ccccc3)c(O)[nH]c2c1 [Nintedanib (BIBF 1120)] | -0.43 ± 0.29 | -1.13 ± 0.34
59 | O=c1cc(-c2ccc(O)cc2)oc2cc(O)cc(O)c12 [Apigenin] | 0.21 ± 0.24 | 0.78 ± 0.39
60 | N#Cc1ccc2[nH]c(O)c(-c3ccc(CN4CCOCC4)cn3)c2c1 | -0.75 ± 0.29 | -1.23 ± 0.4
61 | Cc1cc(C(C)(C)C)cc(C)c1CC1=NCCN1 [Xylometazoline HCl] | -0.32 ± 0.29 | -0.66 ± 0.17
62 | OC[C@@H](O)[C@@H](O)[C@@H](O)CO [Ribitol] | -0.36 ± 0.18 | -0.24 ± 0.099
63 | Clc1cccc(Cl)c1NC1=NCCN1 [Clonidine HCl] | 0.45 ± 0.27 | -0.16 ± 0.23
64 | CNC[C@H](O)[C@@H](O)[C@H](O)[C@H](O)CO [Meglumine] | 0.82 ± 0.28 | 0.18 ± 0.27
65 | CC(C(=O)O)c1ccc2c(c1)CC(=O)c1ccccc1S2 (stereo not given) [Zaltoprofen] | -0.54 ± 0.2 | 0.2 ± 0.14
66 | Cc1ccc(-n2nc(C(C)(C)C)cc2NC(=O)Nc2ccc(OCCN3CCOCC3)c3ccccc23)cc1 [BIRB 796 (Doramapimod)] | -2.53 ± 0.44 | -1.09 ± 0.34
67 | Cc1ccccc1CN1C2=NCCN2C(=O)C2=C1CCN(Cc1ccccc1)C2 | -1.15 ± 0.2 | 0.55 ± 0.24
68 | COc1cc(NC(=O)c2ccccn2)ccc1Cl | -0.12 ± 0.3 | 0.07 ± 0.17
69 | CC1(C)[C@H](C(=O)O)N2C(=O)C[C@H]2S1(=O)=O [Sulbactam sodium] | 0.75 ± 0.26 | -0.43 ± 0.16
70 | N#C/C(=C\c1ccc(O)c(O)c1)C(=O)NCc1ccccc1 [AG-490 (Tyrphostin B42)] | -0.97 ± 0.17 | -0.46 ± 0.18

In the list so far, these contain a cyano group:
Row | SMILES | rod outer segment growth distance Dg [1] [um] | rod outer segment shedding distance Ds [2] [um]
60 | N#Cc1ccc2[nH]c(O)c(-c3ccc(CN4CCOCC4)cn3)c2c1 | -0.75 ± 0.29 | -1.23 ± 0.4
70 | N#C/C(=C\c1ccc(O)c(O)c1)C(=O)NCc1ccccc1 [AG-490 (Tyrphostin B42)] | -0.97 ± 0.17 | -0.46 ± 0.18
